Patent US20230151091A1 (NEW YORK UNIVERSITY, published 2023)
Where a chain is given by its changes, count along the chain named. Numbers in names are those of the source. These are yes or no findings as the source states them, for the method shown. Some results given as binding are weak or reduced against the parent protein; the word gives no strength.

T1: human MuSK (human, UniProt O15146 24-495)
T1 construct: Recombinant protein coated on ELISA plates (R&D Systems cat. 10189-MK) or on the Biacore chip; also called human muscle-specific tyrosine protein kinase; full length human MuSK
T1 sequence: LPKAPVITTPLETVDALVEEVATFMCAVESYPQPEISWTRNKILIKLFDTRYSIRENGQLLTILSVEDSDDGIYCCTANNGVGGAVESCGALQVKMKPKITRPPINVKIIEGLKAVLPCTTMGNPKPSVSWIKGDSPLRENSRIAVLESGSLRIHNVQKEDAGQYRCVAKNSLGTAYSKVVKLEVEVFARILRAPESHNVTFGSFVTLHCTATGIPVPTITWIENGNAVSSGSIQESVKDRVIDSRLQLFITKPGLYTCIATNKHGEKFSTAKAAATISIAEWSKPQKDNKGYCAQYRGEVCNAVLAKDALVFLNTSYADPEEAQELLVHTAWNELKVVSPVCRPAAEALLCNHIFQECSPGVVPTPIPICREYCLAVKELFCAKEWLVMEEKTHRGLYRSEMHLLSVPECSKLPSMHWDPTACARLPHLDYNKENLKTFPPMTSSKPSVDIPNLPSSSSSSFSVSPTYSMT

T2: mouse MuSK (mouse, UniProt Q61006 22-494, limits assumed)
T2 construct: Coated on ELISA plates or on the Biacore chip; also called full length mouse MuSK; mouse MuSK (in house produced in HEK293 cells)
T2 sequence (looked up): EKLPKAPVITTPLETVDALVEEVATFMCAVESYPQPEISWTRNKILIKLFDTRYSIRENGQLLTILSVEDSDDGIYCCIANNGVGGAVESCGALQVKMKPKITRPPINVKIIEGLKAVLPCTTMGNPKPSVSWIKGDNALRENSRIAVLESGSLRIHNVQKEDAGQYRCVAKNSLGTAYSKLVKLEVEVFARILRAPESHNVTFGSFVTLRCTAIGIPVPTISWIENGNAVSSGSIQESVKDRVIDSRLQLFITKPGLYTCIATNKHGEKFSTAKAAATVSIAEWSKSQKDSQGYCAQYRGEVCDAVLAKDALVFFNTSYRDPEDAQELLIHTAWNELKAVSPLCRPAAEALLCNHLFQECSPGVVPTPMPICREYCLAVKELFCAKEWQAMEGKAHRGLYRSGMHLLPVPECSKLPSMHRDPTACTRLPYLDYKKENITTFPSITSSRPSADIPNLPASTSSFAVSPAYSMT

B1: 17H10 (antibody, V domains shown)
VH: QVQVQESGPGLVKPSQTLSLTCTVSGGSITARYYSWSWIRQPPGKGLEWMGVIAYDGSTYYSPSLKSRTSISRDTSKNQFSLHLSSVTPDDTAVYYCARGSSRVAAAFDSWGQGTQVTVSS
VL: SYELTQSPSVSVALRQTAKITCGGNRIGGKSVQWYQQKPGQAPMLVIYADSRRPSGIPERFTGSNSGNTATLTITGAQAEDEADYYCHVWGSTASADFGGGTHLTVL
notes: human IgG1 with the LALA mutations (L234A, L235A); produced in HEK293 cells
B2: 14D10 (antibody, V domains shown)
VH: ELQLVESGGGLVQPGGSLRLSCAASGFTFDDYGMSWVRQAPGKGLEWVSAIPWNGGSTYYKESVKGRFTISRDNAKKTLYLQMNSLKSEDTAVYYCAKRSGRIAFGALDAWGQGTLVTVSS
VL: QAVVTQEPSLSVSPGGTVTLTCGLSSGSVTSSNYPDWYQQTPGQAPRTLIYTTNSRHSGVPSRFSGSISGNKAALTITGAQPEDEADYYCALYMGGGSNVYVFG
notes: as for B1
B3: 16F11 (antibody, V domains shown)
VH: EVQLVESGGGLVQPGGSLSLSCVASGFTFSLYYMNWVRQAPGKGLEWLSVIDTHSIAYYADSVKGRFTISRDNVKNTLYLQLNNLKPEDTALYYCVLGRTALVRWGQGTQVTVSS
VL: DIVMTQSPSSVTASVGEKVTINCKSSQSVVFGSNQKSYLNWYQQRPGQSPRLLIYYASTQESGIPDRFSGSGSTTDFTLTISSVQPEDAAVYYCQQAYSAPTFGSGTRLEIK
notes: as for B1
B4: 3B2g1m2 (antibody, human IgG1, V domains shown)
VH: B2 VH with L2V, V5L, D30S, W53G, N54S, A75S, K77N, K87R, S88A
VL: QTVVTQEPSFSVSPGGTVTLTCGLSSGSVTSSNYPDWYQQTPGQAPRTLIYSTDSRHSGVPDRFSGSILGNKAALTITGAQADDESDYYCGLYMYSGSKNYVFGGGTKLTVL
notes: human IgG1-LALA backbone; produced in HEK293 cells
B5: 3B2g1m4 (antibody, human IgG1, V domains shown)
VH: B2 VH with L2V, V5L, D30S, N54Q, A75S, K77N, K87R, S88A
VL: B4 VL
notes: as for B4
B6: 3B2g2m2 (antibody, human IgG1, V domains shown)
VH: B2 VH with L2V, V5L, D30S, W53G, N54S, A75S, K77N, K87R, S88A
VL: B4 VL with M94S
notes: as for B4
B7: 3B2g2m4 (antibody, human IgG1, V domains shown)
VH: B2 VH with L2V, V5L, D30S, N54Q, A75S, K77N, K87R, S88A
VL: B4 VL with M94S
notes: as for B4
B8: 3B2g2m1 Fab (Fab, V domains shown)
VH: B2 VH with L2V, V5L, D30S, N54S, A75S, K77N, K87R, S88A
VL: B4 VL with M94S
notes: Fab format

Key:
human MuSK [1] = biological target: T1, human MuSK; test: ELISA, coated MuSK 0.2 ug/ml
human MuSK [2] = biological target: T1, human MuSK; test: ELISA, plate coated with human MuSK at 0.2 µg/ml, dilution series of mAb, goat anti human Fc-HRP and TMB, OD 620 nm (8 min)
Experimental: (§1) An ELISA plate was coated with human MuSK (R&D Systems, cat. 10189-MK) or mouse MuSK (in house produced in HEK293 cells) at 0.2 μg/ml. After washing and blocking the plate, a dilution series of the anti-MuSK antibodies was applied and allowed to bind for 2 hours at room temperature. […] OD at 620 nm was measured with a 96 well ELISA plate reader.

mouse MuSK [3] = biological target: T2, mouse MuSK; test: ELISA, coated MuSK 0.2 ug/ml
mouse MuSK [4] = biological target: T2, mouse MuSK; test: ELISA, plate coated with mouse MuSK at 0.2 µg/ml, dilution series of mAb, goat anti human Fc-HRP and TMB, OD 620 nm (8 min)
Experimental: as §1

human MuSK [5] = biological target: T1, human MuSK; test: ELISA, plate coated with human MuSK, dilution series of mAb, OD450
human MuSK [6] = biological target: T1, human MuSK; test: ELISA on coated MuSK
human MuSK [7] = biological target: T1, human MuSK; test: Biacore T200, Fab, dissociation pH 7.4 and pH 5.5

| Binder | binding (human MuSK [1]) | binding (human MuSK [2]) | binding (human MuSK [5]) | binding (human MuSK [6]) | also measured |
| --- | --- | --- | --- | --- | --- |
| B1 | binds | binds |  |  |  |
| B2 | binds | binds |  |  |  |
| B3 | binds | binds |  |  | binding (mouse MuSK [3]): binds; binding (mouse MuSK [4]): binds |
| B4 |  |  | binds | binds |  |
| B5 |  |  | binds | binds |  |
| B6 |  |  | binds | binds |  |
| B7 |  |  | binds | binds |  |
| B8 |  |  |  |  | binding (human MuSK [7]): binds |
